Values quoted from earlier work, collected in patent US20250108142A1, “METHODS FOR TREATING LEAKAGE FROM A GASTROINTESTINAL SITE” (Ethicon, Inc., priority 2023, published 2025).

Details: cited from earlier work

For `CC(C)Cc1ccc(C(C)C(=O)O)cc1` (centres unmarked) [Ibuprofen, ibuprofen], the solubility in water is given as “about 21 mg/l” and the “solubility in water (words)” value is given as “minimum solubility”.
